Source: article PMC10611921
Construct, isoform or probe ends are uncertain for at least one entry. A negative result means that nothing was seen under these conditions.

Test system: YY1 + FOXP2 FHD
Test: EMSA
Conditions: no simultaneous binding, proteins compete for DNA, YY1 2.5-7.5 uM; EMSA: 0.5 uM DNA, 20% (v/v) of binding buffer (10 mM HEPES pH 7.5, 1 mM MgCl2, 100 mM KCl, 10% glycerol, 0.1 mg/ml BSA), protein from 100 mM NaCl, overnight at 4 C; recombinant protein; protein details: N-terminal His6,His6 removed with thrombin

TTTGATTGTTTACTTTGTTC (double strand) [CNTNAP2 DNA]
binding result: no binding
